Assay results reported in US7737157B2, “Pyrimidine compounds” (Hutchison MediPharma Enterprises Limited, priority 2008, dated 2010).
Some results were stated once for a whole list of compounds, not compound by compound.

Sequences of proteins named here, by UniProt entry; tags and fusion partners are left off. Residues count along the entry.
UniProt P35968, 834-1162 limits assumed: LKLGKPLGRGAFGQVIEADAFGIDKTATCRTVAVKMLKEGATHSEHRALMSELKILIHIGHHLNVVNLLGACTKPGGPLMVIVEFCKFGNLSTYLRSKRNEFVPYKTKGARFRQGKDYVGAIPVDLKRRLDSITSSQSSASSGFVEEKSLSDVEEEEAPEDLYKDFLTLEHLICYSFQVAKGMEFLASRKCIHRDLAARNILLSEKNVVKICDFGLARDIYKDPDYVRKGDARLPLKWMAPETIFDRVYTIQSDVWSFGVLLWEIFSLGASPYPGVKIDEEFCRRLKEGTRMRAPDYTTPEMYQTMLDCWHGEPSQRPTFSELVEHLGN

Molecular target: T1, KDR (Homo sapiens, UniProt P35968)
T1 construct: was mixed with a KDR catalytic domain (Invitrogen, Cat. PV3660); purchased Invitrogen PV3660
Assay: Inhibition of KDR kinase activity (Z'-LYTE Tyr1 Peptide assay kit)
Type: biochemical
Conditions: KDR catalytic domain, result in words

CNC(=O)c1c(C)oc2cc(Oc3ccnc(Nc4cccc(OC)c4)n3)ccc12 [Compound 3, 6-(2-(3-methoxyphenylamino)pyrimidin-4-yloxy)-N,2-dimethylbenzofuran-3-carboxamide]
inhibition of the activity of KDR: effectively inhibited the activity of KDR
